By apparent Kd is commonly meant a dissociation constant that holds for the conditions of the assay.

The labels stand for the following.
B1: il2ra_site1_3nfp_normal_mot_HHH_b2_01636_000000239_0001_1_19_H_._HHH_b2_04458_0002_0000400027_0000001_0_af2pred_0001_af2pred_1_swapped (protein)
chain: SSSSDEEELEELLEKLEEAIRNNDFKAAQKLSKEVAELILKTGDEEARRKLERLLRKAVKSSSSS
B2: il2ra_site1_1z92_sap_19_mot_HHH_b1_07792_af2_000000001_0001_1_16_H_._HHH_b1_05409_0001_0000200018_0000001_0_0001_af2pred_0001_af2pred_1 (protein)
chain: SSSSSSERNARIIVESLVRVARLSEEQQRILEELAERLVEEGYSFEEISRILDKEAEELDSSSSS
B3: il2ra_site1_1z92_sap_22_mot_HHH_b2_03302_000000138_0001_21_37_H_._HHH_b1_00461_0001_0000100001_0000001_0_0001_1 (protein)
chain: SLEEAAKLLQELAQDPWLEEILEKIVERIERGDPAARRLLERLLHDFLRLTGDPRLEELLEELRK
B4: il2ra_site1_2b5i_normal_mot_HHH_b1_02271_000000068_0001_1_16_H_._HHH_b1_08298_af2_0001_0000100004_0000001_0_af2pred_dldesign_0_af2pred (protein)
chain: SSSSSSSEVEKLIEEAKRLKEAGKRREALETLEEAYKLACAAGDEELEDKVEELARELSSSSSSS
B5: il2ra_site1_3nfp_sap_19_mot_119b7766384adbe86006a62bce89dba1_0001_af2_000000092_0001_18_32_H_._3633a07a64a68e62d76074d72b379c70_0001_1_af2_0001_0000100004_00000 … (protein)
chain: SSSSSALEFLERLAKRAFEEGDRRALRLLLEIIEKVLERTGTPEAEEVLEYIEELLRRLESSSSS
B6: il2ra_site2_3nfp_normal_mot_HHH_b2_05281_000000198_0001_39_56_H_._HHH_b2_05202_0001_0000600046_0000001_0 (protein)
chain: SSSSSDEEEERIEELLEEAKRVTDEEEVQKILAEATHLAFEANNPELFFEIAELAYELYSSSSSS
B7: il2ra_site2_3nfp_sap_27_mot_HHH_b2_01508_000000034_0001_1_17_H_._c20373e0b622ec25385dccec0cbfe82e_0001_1_0001_0000400004_0000001_0_0001_af2pred_0001_1_af2pred_s … (protein)
chain: SSSSSSDEEERVEELIERLEKVSEEERRELAAEALHLAWELNNPELFSAVAEALLRLDSSSSSSS
B8: il2ra_site1_3nfp_sap_20_mot_HHH_b2_05178_af2_000000174_0001_1_19_H_._HHH_b1_07472_0001_0000300011_0000001_0_0001_af2pred_0001_af2pred_swapped (protein)
chain: SSSSNDLSKRLQELLKLIIEARKRNDEELLEELIEEAKEIAEEANSPLARELVELFEENANSSSS
B9: il2ra_site2_2erj_normal_mot_HHH_b2_01353_af2_000000049_0001_23_39_H_._HHH_b2_01261_0001_0000200007_0000001_0_af2pred_0001_af2pred (protein)
chain: SSSSSDEEEVERLLEEAERLLENGNPEEARQALLEAFELALELGDEELEKRVIEAHLRLLSSSSS
B10: il2ra_site1_3nfp_normal_mot_HHH_b1_06126_000000053_0001_39_51_H_._HHH_b2_06815_0001_0000300024_0000001_0 (protein)
chain: SSSSSDIEERIRELLEEAKEIEDPREALRLFEEALRLAAKAQDPELERLVHEFVKELAGSSSSSS
B11: il2ra_site2_2erj_sap_10_mot_HHH_b1_08207_af2_000000250_0001_43_57_H_._HHH_b2_03076_0001_0000100015_0000001_0_0001 (protein)
chain: SSSSDWLHRLYELANRITELASRGNPEEAREVLEELQELAEEANSDNAKWVAEALEKHLNSSSSS
B12: il2ra_site1_1z92_normal_mot_c9a8daa1dfea21d1414aecde54be4f54_0001_1_af2_000000024_0001_32_46_H_._15f70e71ac3214bf43105af5abf4654e_0001_1_af2_0001_0000300029_000 … (protein)
chain: DEEAARKDLEFALKQGIPPRSVVRAVLLALEHELGDPEEALEVIERAIKLLNDPELEEVVEKLKP
B13: il2ra_site1_2b5i_normal_mot_HHH_b1_05608_000000027_0001_1_14_H_._HHH_b1_07838_af2_0001_0000100003_0000001_0_af2pred_dldesign_0_af2pred (protein)
chain: SSSSSALEAEVEATLAEARRLADAGRRREALEALEKIQKKLDEEDREDLEDRVVALAKELSSSSS
B14: il2ra_site1_2b5i_normal_mot_HHH_b2_04353_af2_000000128_0001_1_17_H_._HHH_b2_02609_0001_0000100009_0000001_0_af2pred_dldesign_0_af2pred (protein)
chain: SSSSDEVWDEVDRLYKEALRLWKEGKKEEAKELLEKALELAKAANDEKLIKDLEYLLKLISSSSS
B15: il2ra_site2_2erj_sap_21_mot_HHH_b1_00941_000000060_0001_45_58_H_._HHH_b1_04651_0001_0000200027_0000001_0_0001 (protein)
chain: SSSSDKEEIEELLEELEEALRRGDFHTFYRISREVYHLIVELGDEELAEVLARLAEEIMEQSSSS
B16: il2ra_site2_2erj_normal_mot_HHH_b1_03107_000000098_0001_39_52_H_._HHH_b2_03853_0001_0000200008_0000001_0 (protein)
chain: SSSSTWREVWEEVAELLALAAHIDDEEEAERVLEEARRVAEENNDEILRRYVEFVLRDFKSSSSS
B17: il2ra_site1_2b5i_sap_17_mot_HHH_b2_06068_000000278_0001_1_18_H_._HEEHE_2120_af2_0001_0000300022_0000001_0_0001_af2pred_dldesign_0_af2pred (protein)
chain: SSSSAEQIREARELFLKANELFQAGKPEEAKEALERALELARAGGAPLLARMIELALKQIESSSS
B18: il2ra_site2_3nfp_normal_mot_HHH_b1_05547_af2_000000149_0001_21_38_H_._HHH_b1_01193_0001_0000400013_0000001_1 (protein)
chain: SSSSDEEERKLEEALELVLEAARALGDEEVVRLIEKLLEEFREEGDPRATLEAYRLSREAYSSSS
B19: il2ra_site1_2b5i_normal_mot_2cbe48e66a1f39b3fed734b245ab0a04_0001_000000015_0001_17_31_H_._HHH_b2_00019_0001_0000500012_0000001_0_af2pred_dldesign_0_af2pred (protein)
chain: SSSSSSDAEAEVERLLEEARKVNPEEAEKLLFKALVVAWAAKDPALVARVEAEAKRLLSSSSSSS

Some of the results follow.

This experiment deals with il2ra, P01589. As to the kind of experiment: yeast display titration.
On to B1, for which the “apparent Kd” value was “inactive: no binding seen”.

For the molecule B2, the “apparent Kd” value is “inactive: no binding seen”.

As for B3, the “apparent Kd” value is “inactive: no binding seen”.

For B4, the “apparent Kd” value was “inactive: no binding seen”.

B5: the “apparent Kd” value was “inactive: no binding seen”.

As for B6, the “apparent Kd” value is “inactive: no binding seen”.

Turning to B7, the “apparent Kd” value was “inactive: no binding seen”.

With B8, the “apparent Kd” value was “inactive: no binding seen”.

In the case of B9, the “apparent Kd” value is “inactive: no binding seen”.

On to B10, for which the “apparent Kd” value is “inactive: no binding seen”.

As to B11, the “apparent Kd” value is “inactive: no binding seen”.

For B12, the “apparent Kd” value was “inactive: no binding seen”.

For B13, the “apparent Kd” value was “inactive: no binding seen”.

Turning to B14, the “apparent Kd” value is “inactive: no binding seen”.

B15: the “apparent Kd” value is “inactive: no binding seen”.

With B16, the “apparent Kd” value is “inactive: no binding seen”.

For B17, the apparent Kd was inactive: > 843 nM.

For B18, the “apparent Kd” value is “inactive: no binding seen”.

Regarding B19, the “apparent Kd” value is “inactive: no binding seen”.

These data come from PMC10163288.
